Laboratory results published in PMC10953581.
For at least one entry, the source does not settle the construct or the ends of the probe. For some assays here: No signal at the amounts used counts as a negative. For some assays here: At least one verdict rests on a figure or table, not on a statement of the authors.

The chains behind the UniProt entries cited, without tags or fusion partners. Where a name states a change or a piece, a line headed by the entry shows the natural chain unless it says otherwise.
UniProt P34897: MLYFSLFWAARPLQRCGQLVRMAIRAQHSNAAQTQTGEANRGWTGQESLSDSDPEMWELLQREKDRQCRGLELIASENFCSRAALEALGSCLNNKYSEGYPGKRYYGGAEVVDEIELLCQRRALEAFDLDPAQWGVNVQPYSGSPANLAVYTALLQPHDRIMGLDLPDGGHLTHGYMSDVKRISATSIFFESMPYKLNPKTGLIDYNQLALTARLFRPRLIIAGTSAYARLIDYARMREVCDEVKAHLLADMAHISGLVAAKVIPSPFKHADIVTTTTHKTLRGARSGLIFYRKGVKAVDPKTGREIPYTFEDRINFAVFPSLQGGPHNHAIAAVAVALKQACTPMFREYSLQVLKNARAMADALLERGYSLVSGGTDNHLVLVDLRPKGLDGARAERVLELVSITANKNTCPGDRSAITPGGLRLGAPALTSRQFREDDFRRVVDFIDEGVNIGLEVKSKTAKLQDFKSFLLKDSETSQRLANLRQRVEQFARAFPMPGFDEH

Assays:
SUMO alone = assay: EMSA; conditions: RNA EMSA (LightShift kit): 10 pmol biotin-RNA, 6 ug protein, 1X EMSA binding buffer, 5% glycerol, 0.1 mg/mL tRNA, 20 uL, 30 min, room temperature; salt and pH not stated; recombinant protein; protein details: SUMO; label: 5' biotin
[1] = target: human SUMO-SHMT2 (Homo sapiens) (UniProt P34897); assay: competition with a labelled probe; conditions: RNA EMSA (LightShift kit): 10 pmol biotin-RNA, 6 ug protein, 1X EMSA binding buffer, 5% glycerol, 0.1 mg/mL tRNA, 20 uL, 30 min, room temperature, salt and pH not stated, recombinant protein, protein details: SUMO
[2] = target: human SUMO-SHMT2 (Homo sapiens) (UniProt P34897); assay: EMSA; conditions: RNA EMSA (LightShift kit): 10 pmol biotin-RNA, 6 ug protein, 1X EMSA binding buffer, 5% glycerol, 0.1 mg/mL tRNA, 20 uL, 30 min, room temperature; salt and pH not stated; recombinant protein; protein details: SUMO; label: 5' biotin

Sequence | binding result [2] | further results
GGACGGGUAGGGGCGGGAGGUA [69-90] |  | binding result (SUMO alone): no binding
GAGAGAAGAGGGAACGAGCAAGGGA [176-200 unlabeled] |  | binding result ([1]; 100-fold excess over labeled 176-200): binds
GGGUGCCCGCGCGUCACGUG [115-134] | no binding | 
CCUCCGGAUCGAUGUGCUGCUGU [380-402] | no binding | 
UGCGCGCGCCCCUGAAGCGCCUGGG [44-68] | no binding | 
GGUCCCUGUUUUGGA [245-259] | no binding | 
GUGAGGAAGGAGGCGGAGGUC [135-155] | no binding | 
CGGGAACCGUCCCCCGCGCGCA [22-43] | no binding | 
GGCGGCAGCGGCAGCGGAAG [425-444] | no binding | 
GGACCAAGCCCCUUCAGCUUCUC [357-379] | no binding | 
GCGGCGGCAGGCCUAGCAGCA [1-21] | no binding | 
UAACCCGUGAGGAGGCGGCGGC [403-424] | no binding | 
AGGAAAGCGGGGAAAGGAGGAA [201-222 unlabeled] |  | binding result ([1]; 100-fold excess over labeled 201-222): binds
GGACGGGUAGGGGCGGGAGGUA [69-90 unlabeled] |  | binding result ([1]; 100-fold excess over labeled 69-90): binds
GGAAACGAACGAGGGGGAGGGA [223-244 unlabeled] |  | binding result ([1]; 100-fold excess over labeled 223-244): binds
GGGGCGCGGCUCCGCGUGCCAGUU [91-114] | no binding | 
UGAGUUUCGAAGGAGGGGGG [156-175 unlabeled] |  | binding result ([1]; 100-fold excess over labeled 156-175): binds
